Results deposited as PubChem BioAssay AID1259306 (Sanger Institute, 2017)
Shown is one part, drawn at random, of 794 reagents. Over the whole deposit, 11 (1.4%) are marked active. 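Calls reflect knock-down alone; synergy scores play no part, so knock-downs synergising with a drug can be called no change.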 Unmarked entries are inactive. Viability is capped at 1. The record does not give: the amount of reagent, the time to read-out.

- Assay: 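Find kinases whose loss reduces colorectal cancer cell viability or aids targeted drugs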 (primary screen)
- Cell system: human SNU-C5 colorectal cancer cells
- Reagent: siRNA pool against human genes
- Treatment: DMSO vehicle alone, or one anchor drug: BYL719 at 1 µM, cetuximab at 5 µg/ml or trametinib at 10 nM, given 24 h into the assay
- Detection: 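Viability versus non-targeting pool averaged across replicates, given as fraction and robust z-score, and synergy scores for BYL719, cetuximab or trametinib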
- Reading the numbers: robust z-score, knock-down alone and viability, knock-down alone: higher = more viable cells; synergy score with BYL719: higher = stronger synthetic lethality with BYL719; synergy score with cetuximab: higher = stronger synthetic lethality with cetuximab; synergy score with trametinib: higher = stronger synthetic lethality with trametinib
- Active means: 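Called essential when the robust z-score for knock-down alone is below -3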
- Calls: active = essential (knock-down alone); inactive = no change alone

target | robust z-score, knock-down alone | viability, knock-down alone | synergy score with BYL719 | synergy score with cetuximab | synergy score with trametinib
FGFR1 | 0.989 | 1 | 0.145 | 0 | -0.00903
PLK4 | -2.32 | 0.544 | -0.0276 | -0.032 | -0.236
NEK7 | 0.989 | 1 | 0.0113 | 0 | 0.113
PANK4 | -1.41 | 0.669 | 0.131 | -0.331 | -0.0691
CLK4 | -0.122 | 0.847 | 0.0261 | -0.153 | -0.123
CSNK2B | 0.51 | 0.934 | 0.18 | 0.018 | 0.193
TNK1 | -0.0612 | 0.855 | -0.0133 | 0.0187 | -0.0627
CAMK1D | -0.138 | 0.845 | -0.138 | -0.155 | -0.159
GUK1 | -0.109 | 0.849 | -0.0179 | -0.151 | -0.0553
POMK | 0.468 | 0.928 | 0.175 | -0.0321 | -0.227
CAMK1 | -0.0854 | 0.852 | 0.0368 | -0.148 | -0.0861
CSK | 0.308 | 0.906 | 0.112 | -0.0295 | 0.0127
LATS1 | -0.315 | 0.82 | 0.157 | 0.265 | -0.0557
PDXK | 0.561 | 0.941 | -0.047 | 0.0737 | -0.0339
ATR | -0.157 | 0.842 | 0.0225 | 0.0139 | -0.184
RIPK3 | 0.355 | 0.913 | 0.0943 | 0.132 | 0.0126
GTF2H1 | 0.383 | 0.917 | 0.199 | 0.0776 | -0.012
DNMT3A | -1.11 | 0.711 | 0.191 | 0.115 | 0.0261
MPP1 | 0.989 | 1 | 0.0943 | 0.0551 | -0.0291
YES1 | 0.989 | 1 | 0.111 | 0 | 0.00215
LTK | 0.3 | 0.905 | 0.0882 | -0.0949 | -0.0846
CRKL | 0.872 | 0.984 | 0.0237 | 0.0519 | -0.151
PIP5K1A | -1.79 | 0.618 | -0.00403 | -0.0874 | -0.0983
JAK1 | -0.461 | 0.8 | -0.189 | -0.2 | -0.194
MAGI2 | 0.989 | 1 | 0.00514 | 0 | 0.00884
WNK4 | 0.989 | 1 | 0.00501 | 0 | -0.145
CALM1 | 0.802 | 0.974 | 0.0532 | -0.0257 | -0.0759
RPS6KA3 | 0.989 | 1 | 0.108 | 0.000403 | 0.0267

6 entries from above, limited to “robust z-score, knock-down alone”.
CAMK1: -0.0854
CSK: 0.308
LATS1: -0.315
PDXK: 0.561
ATR: -0.157
RIPK3: 0.355

The list goes on:
target | robust z-score, knock-down alone | viability, knock-down alone | synergy score with BYL719 | synergy score with cetuximab | synergy score with trametinib
FASTK | -0.541 | 0.789 | -0.0457 | -0.0709 | 0.0154
PDK4 | 0.989 | 1 | 0.216 | 0.018 | 0.141
MAP3K5 | 0.989 | 1 | 0.255 | 0.0456 | 0.107
PAK3 | -0.776 | 0.757 | -0.0858 | -0.0546 | -0.286
MAPK7 | 0.989 | 1 | 0 | 0.156 | 0.0832
CHKB | 0.023 | 0.867 | 0.0861 | -0.133 | -0.107
NEK4 | -0.542 | 0.789 | -0.000264 | -0.0281 | -0.14
ACO1 | -2.1 | 0.574 | 0.108 | -0.00789 | -0.0592
LMTK1 | 0.989 | 1 | 0.0621 | 0.0383 | -0.0188
PAPSS1 | 0.989 | 1 | 0 | 0 | -0.0982
IP6K2 | -0.00614 | 0.863 | 0.0508 | -0.132 | 0.0504
JAK2 | -0.0431 | 0.858 | -0.0536 | 0.159 | -0.114
IKBKE | -0.773 | 0.757 | -0.0377 | 0.168 | -0.0823
CREBBP | -1.63 | 0.639 | -0.0545 | -0.0792 | -0.193
MOS | 0.369 | 0.915 | 0.0728 | 0.161 | 0.027
MYLK2 | -3.96 (active) | 0.318 | -0.0867 | -0.176 | -0.227
PCK1 | 0.133 | 0.882 | 0.153 | 0.211 | 0.0064
